Measurements published in PMC9348797.

Chains of the proteins cited; added tags and fusions are not shown. Lines headed by an entry give the natural chain unless they say otherwise; changes in a name come on top.
UniProt Q9UBY8: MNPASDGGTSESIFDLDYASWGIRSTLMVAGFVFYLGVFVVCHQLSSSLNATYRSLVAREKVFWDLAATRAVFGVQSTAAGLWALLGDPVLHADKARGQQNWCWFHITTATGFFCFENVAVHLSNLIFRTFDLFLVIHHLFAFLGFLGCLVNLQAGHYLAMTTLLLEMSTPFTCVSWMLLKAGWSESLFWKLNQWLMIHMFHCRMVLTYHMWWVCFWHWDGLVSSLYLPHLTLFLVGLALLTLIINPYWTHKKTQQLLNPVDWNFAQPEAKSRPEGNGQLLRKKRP
UniProt O14773: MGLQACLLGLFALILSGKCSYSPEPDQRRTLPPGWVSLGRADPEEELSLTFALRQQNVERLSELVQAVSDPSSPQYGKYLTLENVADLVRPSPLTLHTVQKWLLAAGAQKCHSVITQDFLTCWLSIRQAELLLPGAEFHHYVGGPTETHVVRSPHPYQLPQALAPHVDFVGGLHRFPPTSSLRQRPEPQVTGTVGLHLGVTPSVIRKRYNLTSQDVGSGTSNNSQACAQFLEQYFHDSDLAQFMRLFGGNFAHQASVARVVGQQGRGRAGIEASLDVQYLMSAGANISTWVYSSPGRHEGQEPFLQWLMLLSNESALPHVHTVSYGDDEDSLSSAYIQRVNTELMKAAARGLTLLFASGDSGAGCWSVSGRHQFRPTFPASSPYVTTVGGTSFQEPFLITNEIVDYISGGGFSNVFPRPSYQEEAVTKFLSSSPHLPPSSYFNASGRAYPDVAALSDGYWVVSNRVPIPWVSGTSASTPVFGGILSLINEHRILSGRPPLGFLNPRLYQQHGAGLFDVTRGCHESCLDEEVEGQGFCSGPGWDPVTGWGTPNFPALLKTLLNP

Experiments:
CLN8 (transfected, HeLa) = CLN8 (transfected, HeLa) (UniProt Q9UBY8); test: co-IP; IP with an anti-Myc antibody from HeLa cells transfected for 24 hours; parental, KCTD7-deficient, CLN5 KD or CLN5-overexpressing cells
CLN6 (transfected, HeLa) = biological target: T1, CLN6 (transfected, HeLa) (UniProt Q9NWW5); test: as above
T1 sequence: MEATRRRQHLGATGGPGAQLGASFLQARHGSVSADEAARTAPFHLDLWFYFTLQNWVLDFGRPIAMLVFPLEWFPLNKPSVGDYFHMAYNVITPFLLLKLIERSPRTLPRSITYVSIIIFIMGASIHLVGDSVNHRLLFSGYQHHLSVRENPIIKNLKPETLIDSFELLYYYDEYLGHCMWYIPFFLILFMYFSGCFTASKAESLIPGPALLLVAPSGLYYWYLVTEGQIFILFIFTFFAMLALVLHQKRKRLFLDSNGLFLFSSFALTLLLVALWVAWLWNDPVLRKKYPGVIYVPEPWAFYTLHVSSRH

binding (CLN8 (transfected, HeLa)): binds
binding (CLN6 (transfected, HeLa)): binds
Substance: TPP1 (transfected, HeLa) (from UniProt O14773) (enzyme)

No constants are given. Whether binding was seen depends on the method and setting. Binding seen in cells or lysates may run through a third protein. A result given as binding can be weak or reduced; the word gives no strength.
